Measured values reported in publication PMC8357189.

Columns and labels:
RHOX10-HA (mouse) [1] = target: T1, RHOX10-HA (mouse) (UniProt Q4TU83); experiment: EMSA, supershift; settings: anti-HA supershift in lane 4, lane 5 without antibody; LightShift 1X binding buffer, 2.5% glycerol, 5 mM MgCl2, 1 ug poly(dI-dC), 0.05% NP-40, 2.5 nM probe, 3 ug nuclear extract, 20 uL, room temperature 20 min; protein in an extract; protein details: HA; label: 3' biotin
T1 sequence (looked up, limits assumed): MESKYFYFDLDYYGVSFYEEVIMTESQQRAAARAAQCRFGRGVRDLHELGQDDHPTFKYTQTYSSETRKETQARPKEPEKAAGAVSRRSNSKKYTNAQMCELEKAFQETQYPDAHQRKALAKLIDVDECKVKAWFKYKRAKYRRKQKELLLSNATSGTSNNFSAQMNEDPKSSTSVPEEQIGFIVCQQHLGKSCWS

RHOX10-HA (mouse) [2] = target: T1, RHOX10-HA (mouse); experiment: competition with a labelled probe; settings: 200-fold excess unlabeled over labeled N1, signal greatly reduced; LightShift 1X binding buffer, 2.5% glycerol, 5 mM MgCl2, 1 ug poly(dI-dC), 0.05% NP-40, 2.5 nM probe, 3 ug nuclear extract, 20 uL, room temperature 20 min; protein in an extract; protein details: HA
RHOX10-HA (mouse) [3] = target: T1, RHOX10-HA (mouse); experiment: EMSA; settings: LightShift 1X binding buffer, 2.5% glycerol, 5 mM MgCl2, 1 ug poly(dI-dC), 0.05% NP-40, 2.5 nM probe, 3 ug nuclear extract, 20 uL, room temperature 20 min; protein in an extract; protein details: HA; label: 3' biotin

“CTCCTCCAAGCAACCATTGGCGCTCAGCTCAATTCC (double strand) [Dmrt1 promoter probe]”: binds (RHOX10-HA (mouse) [1]).

“CTCCTCCAAGCAACCATTGGCGCTCAGCTCAATTCC (double strand) [unlabeled Dmrt1 promoter competitor]”: binds (RHOX10-HA (mouse) [2]).

“CTCCTCCAAGCAACCCGCTCAGCTCAATTCC (double strand) [mutated Dmrt1 probe (CCAAT deleted)]”: no binding (RHOX10-HA (mouse) [3]).

For at least one entry, the source does not settle the construct or the ends of the probe. At least one result comes from cells or an extract, where the contact may be indirect. For part of these data: Negatives hold for the conditions tested. Tags and fusion partners may be left off the protein sequences shown.
